Data as given in the supplement of paper PMC3334620.
The full ranking holds about 33,000 sequences; the median of “E-score (-0.5 to 0.5)” is about -0.0014, and the highest 2% start at about 0.25. This is one part of the list.

Target: T1, Cad1 (UniProt P24813)
T1 sequence: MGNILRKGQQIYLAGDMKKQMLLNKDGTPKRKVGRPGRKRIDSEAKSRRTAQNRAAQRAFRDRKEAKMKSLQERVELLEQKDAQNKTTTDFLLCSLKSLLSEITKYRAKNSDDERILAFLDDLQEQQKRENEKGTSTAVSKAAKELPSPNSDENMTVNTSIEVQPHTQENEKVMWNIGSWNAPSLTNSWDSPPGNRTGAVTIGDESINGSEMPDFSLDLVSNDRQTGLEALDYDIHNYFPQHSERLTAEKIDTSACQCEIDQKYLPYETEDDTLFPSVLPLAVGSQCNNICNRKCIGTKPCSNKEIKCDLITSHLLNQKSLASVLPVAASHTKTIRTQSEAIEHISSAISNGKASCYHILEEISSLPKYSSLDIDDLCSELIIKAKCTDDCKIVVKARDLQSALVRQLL
Assay: PBM E-score (8-mer binding enrichment) (E-score (-0.5 to 0.5)); higher = stronger / more preferred TF binding
Settings: protein concentration: 100 nM; construct: GST-full length
Procedure, shortened: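 E-scores (a modified Wilcoxon-Mann-Whitney statistic) were assigned by the Universal PBM Analysis Suite to every ungapped eight-base word pooled with its reverse complement. The input came from universal all-10-mer Agilent arrays made double-stranded by primer extension and probed with GST-tagged yeast transcription factors at about 100-200 nM. Fluorescent anti-GST detected bound protein, and masliner normalised the scans.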

| Sequence | PBM E-score |
| --- | --- |
| CATTTGCG | -0.0692 |
| GCTCATTA | 0.0873 |
| ATTACGGC | 0.124 |
| GTTGGAAA | -0.0664 |
| TACGTTAA | 0.153 |
| AGAATCTC | -0.122 |
| CGTACCCA | -0.0278 |
| AGTGTAGA | -0.0852 |
| TAGATCTA | 0.17 |
| ATATCAAA | 0.0329 |
| AGCCGTTC | -0.215 |
| CGCAAGCG | -0.133 |
| GGTCGGAC | -0.0901 |
| TACCCCTA | -0.0672 |
| CAACACAC | 0.00373 |
| AAGTCGTC | -0.147 |
| CTGCATTC | 0.00506 |
| AACTGGGA | -0.143 |
| GCTACCCA | -0.112 |
| AAAAAGGG | -0.147 |
| AGGGAAAA | -0.125 |
| AGAGGGTC | -0.32 |
| GACAGAGC | -0.124 |
| GGATACGA | -0.0996 |

Pulled one by one from the list above, 4 records:

| Sequence | PBM E-score |
| --- | --- |
| GCTACCCA | -0.112 |
| GGATACGA | -0.0996 |
| AGAGGGTC | -0.32 |
| CGCAAGCG | -0.133 |

Next entries follow.

| Sequence | PBM E-score |
| --- | --- |
| ATAAGCCC | -0.223 |
| ATGATAAA | 0.231 |
| ATATACGG | -0.0995 |
| CCCCAAAA | 0.0744 |
| CATCTAGG | -0.273 |
| CCTAATAA | 0.0868 |
| CTTCGTAA | 0.0607 |
| AAAACCCA | 0.229 |
| GCTCGCAA | 0.0456 |
| ACTGGGTG | -0.169 |
| ACTCTTTC | -0.083 |
| CCTTCTGA | -0.0904 |
| ATCTAGAA | 0.124 |
| CCTCAGGA | -0.0778 |
| ACTCGATG | 0.15 |
| CAGGCCTG | 0.0877 |
| CGCAGGGA | -0.288 |
| CTGCTAAG | -0.139 |
| GAATAGAA | 0.136 |
| AGACCGAA | 0.143 |
| ACGTACGG | 0.0327 |
| ACGCATGG | -0.215 |
| GATATCGC | 0.124 |
| AAGGCAGT | 0.0323 |

| Sequence | PBM E-score |
| --- | --- |
| AAGGCATA | -0.0337 |
| GTGGGTCA | -0.31 |
| AAGCCGTA | 0.0223 |
| ATACAAAG | 0.0741 |
| ACTTACCG | 0.0895 |
| CACCTGTA | -0.157 |
| GGAGGCAC | -0.168 |
| AACTCGCC | 0.012 |
| ACTAGACC | 0.104 |
| AATCATTC | 0.096 |
| ATCGGTGC | -0.00786 |
| ACACAACG | 0.0513 |
| ATCGCTAA | 0.102 |
| GCACACGA | 0.0365 |
| CGAGGGCA | 0.0579 |
| TCACTCGA | 0.04 |
| CGAATAAA | 0.129 |
| CGAGGCAA | 0.111 |
| AGCCTTGA | -0.0232 |
| AGGCACAG | -0.0832 |
| ATCGGTAA | 0.147 |
| CAGACACA | 0.0775 |
| AGTTGCTA | 0.0842 |
| CACGGGCG | -0.0141 |

| Sequence | PBM E-score |
| --- | --- |
| CTAGGGTC | -0.236 |
| GTCTCCTA | -0.194 |
| CTGAGGCC | -0.0469 |
| TGCTAGAA | -0.134 |
| ACAAAGAA | 0.22 |
| GAATAAGC | 0.0988 |
| GATCGGAA | -0.0356 |
| ATTAACTG | 0.129 |
| GATAATGC | 0.0145 |
| CGTGACGC | 0.202 |
| CAAACCCC | -0.206 |
| AATCAGCT | 0.274 |
| AACAGCGT | 0.133 |
| CACCCCAC | -0.0178 |
| CGTTGTTA | 0.117 |
| GAGGCGCC | 0.0825 |
| CAACTACG | 0.0571 |
| CGAGTACG | 0.00825 |
| TAGGAAGA | -0.194 |
| AGTGTTGG | 0.0709 |
| AAATATCG | 0.151 |
| CGCTGGGA | -0.221 |
